Data taken from PubChem BioAssay AID1053133, deposited by Broad Institute (2014).

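Vaccinia-infected cells with a two-color viral stage reporter; Venus fluorescence read on a plate reader; the cell line is not named here; timing not stated here.
The test concentration is not given here.
Percent change in Venus reporter signal; lower (more negative) values mean stronger inhibition of that viral stage.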

Values are in %.
The controls that fix the scale are not given here.
Common to all entries: measured here: Venus reporter, other viral stage.
This is a side read-out of the assay, for part of the compounds, not drawn at random.

compound,activity change (Venus) (%)
C[C@H]1CN([C@@H](C)CO)S(=O)(=O)c2ccc(C#Cc3ccncc3)cc2O[C@@H]1CN(C)C(=O)C1CCCCC1,-67.15
COc1ccc(S(=O)(=O)N(C)C[C@@H]2Oc3c(NC(=O)c4nc5ccccc5s4)cccc3C(=O)N([C@H](C)CO)C[C@@H]2C)cc1,-27.13
Cc1ccc(-c2cnc3c(c2)C(=O)N([C@H](C)CO)C[C@@H](C)[C@H](CN(C)Cc2ccccc2F)O3)cc1,-37.63
CCCNC(=O)N1CC2(CN(Cc3cccc(OC)c3)C2)c2c(n(C)c3cc(OC)ccc23)[C@@H]1CO,-29.27
CO[C@@H]1CN(C)C(=O)c2cc(NC(=O)NC(C)C)ccc2OC[C@H](C)N(Cc2ccc(-c3ccccn3)cc2)C[C@H]1C,-43.52
COc1ccccc1-c1ccc2c(c1)[C@H]1[C@H](CCN1C(=O)C1CCCC1)[C@@H](CO)N2,-55.05
COc1ccc(NC(=O)N2CCCCN3[C@H](CO)[C@@H](c4ccc(C5=CCCC5)cc4)[C@H]3C2)cc1,-46.96
C[C@@H]1CN([C@@H](C)CO)C(=O)Cc2cc(NC(=O)Nc3ccc4c(c3)OCO4)ccc2O[C@H]1CN(C)CC1CCCCC1,-50.17
COC(=O)[C@@]1(CCS(=O)(=O)c2ccccc2)N=C(c2ccc(OCCCO)cc2)O[C@H]1c1ccccc1CN=[N+]=[N-],-26.29
C[C@@H]1CN([C@H](C)CO)S(=O)(=O)c2ccc(C3=CCCCC3)cc2O[C@H]1CN(C)C(=O)C1CCCCC1,-48.84
COc1ccc(CN(C)C[C@@H]2OCCCC[C@H](C)Oc3ccc(NS(=O)(=O)c4ccccc4)cc3C(=O)N([C@H](C)CO)C[C@@H]2C)cc1,-35.84
CC(C)C#Cc1ccc2c(c1)O[C@H](CN(C)Cc1cncnc1)[C@@H](C)CN([C@@H](C)CO)S2(=O)=O,-39.6
O=C(C[C@H]1CC[C@H]2[C@@H](COC[C@H](O)CN2Cc2ccc(Oc3ccccc3)cc2)O1)N1CCN(c2ccccc2)CC1,-45.2
CN1c2ccc(Br)cc2[C@@H]2[C@@H](CCN2S(=O)(=O)c2cccc(F)c2)[C@@H]1CO,-27.77
O=C(C[C@@H]1C[C@H]2c3cc(NC(=O)c4ccc5c(c4)OCO5)ccc3O[C@H]2[C@H](CO)O1)NCc1ccc(Cl)cc1,-32.01
COc1cccc(-c2ccc([C@H]3[C@@H](CO)N(C(=O)c4ccccn4)[C@H]3C#N)cc2)c1,-74.17
C[C@H]1CN([C@@H](C)CO)S(=O)(=O)c2ccc(C#Cc3ccc(F)cc3)cc2O[C@H]1CN(C)C(=O)NC1CCCCC1,-57.38
C[C@H](CO)N1C[C@H](C)[C@@H](CN(C)Cc2ccccc2)Oc2ccc(NC(=O)NC3CCCCC3)cc2CC1=O,-31.63
C[C@@H]1CN([C@@H](C)CO)S(=O)(=O)c2ccc(-c3ccc(C(=O)N(C)C)cc3)cc2O[C@@H]1CN(C)Cc1ccc2c(c1)OCO2,-52.23
C[C@@H]1CN([C@H](C)CO)C(=O)c2cc(NC(=O)c3ccncc3)ccc2O[C@@H](C)CCCCO[C@H]1CN(C)Cc1ccc(Cl)c(Cl)c1,-57.77
COc1ccccc1NC(=O)N1CCCCN2[C@@H](CO)[C@H](c3ccc(C#Cc4ccccc4)cc3)[C@@H]2C1,-29.95
COc1ccccc1-c1cnc2c(c1)C(=O)N([C@H](C)CO)C[C@@H](C)[C@H](CN(C)Cc1cccc(F)c1)O2,-25.22
C[C@H]1CN([C@@H](C)CO)C(=O)Cc2cc(NC(=O)Nc3ccc(F)cc3)ccc2O[C@H]1CN(C)S(=O)(=O)c1ccc(F)cc1,-37.66
COc1ccc(S(=O)(=O)Nc2ccc3c(c2)C(=O)N([C@@H](C)CO)C[C@@H](C)[C@H](CN(C)Cc2ccc4c(c2)OCO4)OCCCC[C@H](C)O3)cc1,-45.22
C[C@@H]1CN([C@@H](C)CO)C(=O)c2cc(NC(=O)C3CCCCC3)ccc2O[C@@H](C)CCCCO[C@H]1CN(C)Cc1ccc(Cl)c(Cl)c1,-29.58
CCCC#Cc1ccc2c(c1)O[C@@H](CN(C)CC1CCOCC1)[C@H](C)CN([C@H](C)CO)S2(=O)=O,-37.66
O=C(C[C@H]1CC[C@H]2[C@@H](COC[C@H](O)CN2C(=O)Nc2ccc(Cl)c(Cl)c2)O1)NC1CCC1,-24.48
C[C@@H]1CCCCO[C@H](CN(C)CC2CCCCC2)[C@H](C)CN([C@@H](C)CO)C(=O)c2cc(NS(=O)(=O)c3cccs3)ccc2O1,-42.26
N#Cc1cccc(-c2ccc3c(c2)[C@@H]2[C@@H](CCN2S(=O)(=O)c2ccc(F)cc2)[C@H](CO)N3)c1,-27.92
Cc1noc(C)c1S(=O)(=O)Nc1ccc2c(c1)CC(=O)N([C@H](C)CO)C[C@H](C)[C@@H](CN(C)Cc1ccc(-c3ccccc3)cc1)O2,-28.9
C[C@@H]1CCCCO[C@H](CN(C)S(=O)(=O)c2ccccc2)[C@H](C)CN([C@H](C)CO)C(=O)c2cc(NS(=O)(=O)c3ccc(F)cc3)ccc2O1,-22.23
C[C@@H]1CCCCO[C@H](CN(C)Cc2ccc3c(c2)OCO3)[C@@H](C)CN([C@@H](C)CO)C(=O)c2cc(NC(=O)Nc3ccccc3)ccc2O1,-59.74
N#Cc1cccc(-c2ccc(C3[C@@H]4CN(C(=O)C5CCC5)C[C@H]3N4)cc2)c1 (stereo partly specified),-83.29
Cc1ccc(S(=O)(=O)N(C)C[C@@H]2Oc3c(NC(=O)c4ccc(-c5nccs5)cc4)cccc3C(=O)N([C@H](C)CO)C[C@@H]2C)cc1,-33.7
COc1ccc2c3c(n(C)c2c1)[C@@H](CO)N(Cc1ccccc1OC)CC31CCN(C)CC1,-25.99
C[C@H]1CN([C@@H](C)CO)S(=O)(=O)c2ccc(-c3ccccc3)cc2O[C@H]1CN(C)S(=O)(=O)c1ccccc1F,-46.16
COc1ccc(C#Cc2cnc3c(c2)C(=O)N([C@H](C)CO)C[C@H](C)[C@H](CN(C)C(=O)Nc2cccc4ccccc24)O3)cc1OC,-43.43
Cc1ccccc1S(=O)(=O)N[C@@H]1CC[C@@H](CCn2cc(-c3ccc(F)cc3)nn2)O[C@H]1CO,-41.09
COc1ccc(C#Cc2ccc([C@@H]3[C@@H](CO)N4C(=O)CN(C(=O)C5CCOCC5)C[C@@H]34)cc2)cc1,-58.64
COc1ccccc1NC(=O)N1CCCCN2[C@@H](CO)[C@H](c3ccc(-c4cccc(C)c4)cc3)[C@@H]2C1,-54.46
C[C@H](CO)N1C[C@H](C)[C@@H](CN(C)S(=O)(=O)c2cccs2)OCCCC[C@H](C)Oc2ccc(NS(=O)(=O)c3ccc(F)cc3)cc2C1=O,-31.62
Cc1ccccc1-c1ccc([C@H]2[C@H](CO)N3CCCCN(S(=O)(=O)Cc4ccccc4)C[C@@H]23)cc1,-31.54
COc1cccc(NC(=O)N(C)C[C@H]2Oc3cc(C#Cc4ccc(F)cc4)ccc3S(=O)(=O)N([C@H](C)CO)C[C@@H]2C)c1,-50.78

Once more, the final 4:

- COc1ccccc1NC(=O)N1CCCCN2[C@@H](CO)[C@H](c3ccc(-c4cccc(C)c4)cc3)[C@@H]2C1 : activity change (Venus) -54.46%
- C[C@H](CO)N1C[C@H](C)[C@@H](CN(C)S(=O)(=O)c2cccs2)OCCCC[C@H](C)Oc2ccc(NS(=O)(=O)c3ccc(F)cc3)cc2C1=O : activity change (Venus) -31.62%
- Cc1ccccc1-c1ccc([C@H]2[C@H](CO)N3CCCCN(S(=O)(=O)Cc4ccccc4)C[C@@H]23)cc1 : activity change (Venus) -31.54%
- COc1cccc(NC(=O)N(C)C[C@H]2Oc3cc(C#Cc4ccc(F)cc4)ccc3S(=O)(=O)N([C@H](C)CO)C[C@@H]2C)c1 : activity change (Venus) -50.78%